Measurements taken from PubChem BioAssay AID2685 (National Center for Advancing Translational Sciences (NCATS), 2010).
Some of the results follow. These are further read-outs of the screen, such as a control signal, another cell line or another target. No call is given for them. The list favours compounds with an active or inconclusive main result. Potencies come from curve fits of mixed quality, noted in brackets.

Experiment: qHTS Assay for Lipid Storage Modulators in Drosophila S3 Cells;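 on cell number change: cells counted by Cell Tracker Red CMTPX staining in the red channel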
Conditions: BODIPY lipid droplet fluorescence, 18-24 h; for cell number change: measured here: cell count max response, cells fed with added oleic acid
Outline: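 Drosophila S3 cells loaded with oleic acid (400 uM, as added) and compounds at several concentrations; lipid droplets imaged by 488-nm laser-scanning cytometry, 500–530 nm intensity and object ratio to cell channel. Percent activity normalized to 20 uM Triacsin C.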

[1] = measured here: cell number channel AC50, cells fed with added oleic acid
[2] = measured here: lipid fluorescence (Fed channel) AC50, cells fed with added oleic acid

With `Cc1cccc(C(C)Nc2ccc([N+](=O)[O-])cn2)c1` (stereo not drawn) the cell number change was 33.3%, the AC50 [1] was 0.00517 µM [rising, full curve, poor fit] and the AC50 [2] was 3.66 µM [rising, full curve].
For `Cc1cc(Cl)c(OCCCN(C)C)c(Br)c1`, the cell number change was -37.4%, the AC50 [1] was 0.651 µM [falling, partial curve, poor fit] and the AC50 [2] was 0.366 µM [falling, full curve].
With `COc1ccc(N2CCN(c3ncnc4c3[nH]c3ccccc34)CC2)cc1` the cell number change was -36.9%, the AC50 [1] was 23.1 µM [falling, single point] and the AC50 [2] was 0.517 µM [rising, full curve].
Work on `COc1ccc(-c2noc(CNC(=O)c3ccc4c(c3)OCO4)n2)cc1OC` yielded a cell number change of 5.46%.
In the case of `CCOc1ccccc1N1CC(C(=O)Nc2ccc(C(=O)O)cc2)CC1=O` (stereo not drawn), the cell number change is reported as -27%.
With `COc1ccc(CCNC(=O)c2ccc(C)s2)cc1OC` the cell number change was 6.99%.
With `CC(C)CN1CCN(Cc2cccn2-c2ccccn2)CC1CCO` (stereo not drawn) the cell number change was -29.3% and the AC50 [2] was 18.4 µM [rising, partial curve, poor fit].
Work on `COc1ccc(C2CC(c3ccccc3)=NN2C(=O)COC(=O)/C=C/c2ccc(O)c(OC)c2)cc1` (stereo not drawn) yielded a cell number change of -2.92%.
With `CN(C)/C=C(\C#N)C(=O)Nc1ccc(O)cc1F` the cell number change was -46.5%, the AC50 [1] was 20.6 µM [falling, single point] and the AC50 [2] was 18.4 µM [falling, partial curve].
For `COC(=O)c1ccccc1NC(=O)N1CCN(c2ccc(F)cc2)CC1`, the cell number change was 15.5% and the AC50 [2] was 0.13 µM [rising, full curve, poor fit].
With `Cc1cc(OCC(=O)N2CCN(c3ccccn3)CC2)cc(C)c1Br` the cell number change was -15.3%, the AC50 [1] was 0.82 µM [rising, partial curve] and the AC50 [2] was 0.58 µM [falling, single point].
With `O=S(=O)(Nc1ccc2cn[nH]c2c1)c1ccc(C(F)(F)F)cc1` the cell number change was -19.6% and the AC50 [2] was 14.6 µM [rising, single point].
For `O=C(Nc1cccc(F)c1)C1CCCN1S(=O)(=O)c1cccc2cccnc12` (stereo not drawn), the cell number change was 31.4%, the AC50 [1] was 16.4 µM [rising, single point] and the AC50 [2] was 29.1 µM [rising, single point].
For `CCOc1ccc([C@@H]2CC=C(C(=O)O)CN2S(=O)(=O)c2ccc(C)cc2)cc1`, the cell number change was 5.28% and the AC50 [2] was 0.092 µM [rising, full curve, poor fit].
For `CC(=O)c1cccc(NC(=O)CN2C=NS(=O)(=O)c3ccc(C)cc32)c1`, the cell number change was -42.6%, the AC50 [1] was 23.1 µM [falling, partial curve, poor fit] and the AC50 [2] was 29.1 µM [falling, single point].
With `COc1ccc(C(O)P(=O)(OCC(C)C)OCC(C)C)c(OC)c1` (stereo not drawn) the cell number change was -8.14% and the AC50 [2] was 0.116 µM [rising, full curve, poor fit].
For `COCCOC(=O)C1=C(C)Nc2cc(=O)[nH]c(=O)n2C1c1cccc([N+](=O)[O-])c1` (stereo not drawn), the AC50 [2] was 10.3 µM [rising, single point].
`CC(C)(C)OC(=O)N1CCC(Cc2cc(-c3ccccc3)no2)(C(=O)O)CC1` showed a cell number change of 32%.
In the case of `NC(=O)c1cc2c(s1)-c1cc(Cl)ccc1SC2`, the cell number change is reported as 14.5%, the AC50 [1] is reported as 1.64 µM [rising, partial curve, poor fit] and the AC50 [2] is reported as 25.9 µM [rising, single point].
For `S=C(Nc1ccc(Cl)cc1Cl)N1CCN(c2ccccn2)CC1`, the cell number change was 55.8%, the AC50 [1] was 29.1 µM [rising, single point] and the AC50 [2] was 29.1 µM [falling, single point].
With `O=C(N(Cc1ccccc1)c1ccccn1)C12CC3CC(CC(C3)C1)C2` the cell number change was -27.8%, the AC50 [1] was 0.82 µM [falling, full curve, poor fit] and the AC50 [2] was 0.164 µM [falling, full curve].
In the case of `CN(C(=O)CSc1nnc(-c2ccccc2F)n1N)C1CCCCC1`, the cell number change is reported as -18.7%.
For `COc1ccc(C(CC(=O)c2ccc(C)cc2)C(C#N)C#N)cc1OC` (stereo not drawn), the cell number change was 0.318% and the AC50 [2] was 29.1 µM [falling, single point].
With `O=C(CNC(=O)c1ccc(Br)o1)Nc1cccc(S(=O)(=O)N2CCCC2)c1` the cell number change was 1.13%, the AC50 [1] was 0.0231 µM [falling, full curve, poor fit] and the AC50 [2] was 0.00461 µM [falling, full curve, poor fit].
With `CN(CC(=O)Nc1cccc(F)c1)C(=O)c1cccc2ccccc12` the AC50 [2] was 23.1 µM [falling, partial curve].
For `CCN(CC)c1ccc(C(=S)NC2CCCCC2)cc1`, the cell number change was -26.8% and the AC50 [2] was 2.06 µM [falling, partial curve, poor fit].
With `COc1ccc(C(=O)OCC(=O)Nc2ccc(F)c(F)c2)cc1OC` the cell number change was 110%, the AC50 [1] was 5.8 µM [rising, full curve] and the AC50 [2] was 18.4 µM [rising, partial curve].
In the case of `COc1cc(C(=O)Nn2cnnc2)ccc1OC(F)F`, the cell number change is reported as 20.1% and the AC50 [2] is reported as 18.4 µM [rising, single point].
Work on `CC(C)NCCCCOc1ccc(Br)cc1Cl` yielded a cell number change of -9.23%.
`CCN1CCN(Cc2nc3c(c(=O)n(C)c(=O)n3C)n2C(C)C(C)=O)CC1` (stereo not drawn) gave a cell number change of -2.63%.
With `O=C(c1cccc(S(=O)(=O)N2CCOCC2)c1)N(CCc1ccccc1)Cc1ccccc1` the cell number change was -4.02% and the AC50 [2] was 5.8 µM [falling, full curve].
With `Cn1cccc1Cc1nnc(SCC(=O)N2CCCCCC2)n1CCc1ccccc1` the cell number change was 4.85% and the AC50 [2] was 6.51 µM [rising, single point].
With `COCC(C)NC(=O)CSc1nc2nn(-c3ccccc3)c(=O)c-2c2n1CCCCC2` (stereo not drawn) the cell number change was 3.3% and the AC50 [1] was 0.00461 µM [falling, full curve, poor fit].
For `Cc1cccc(C2C3=C(Nc4[nH]n(-c5ccccc5)c(=O)c42)c2ccccc2C3=O)c1` (stereo not drawn), the cell number change was 21.2%.
In the case of `CNC(=O)CCCCC(=O)N/N=C/c1ccc(Cl)cc1Cl`, the cell number change is reported as 18.2% and the AC50 [2] is reported as 14.6 µM [rising, partial curve].
`COc1ccc(NC(=O)c2ccc(N3CCOCC3)nc2)cc1` gave a cell number change of 2.16%.
In the case of `Cc1ccnc(NC(=O)CCC(=O)N(CC(=O)NCc2ccccc2)Cc2cccs2)c1`, the cell number change is reported as 23.5% and the AC50 [2] is reported as 1.64 µM [rising, partial curve].
In the case of `CC1CCC(NC(=O)c2cc(S(=O)(=O)N3CCCCC3)ccc2N2CCOCC2)CC1` (stereo not drawn), the cell number change is reported as -10% and the AC50 [2] is reported as 16.4 µM [falling, single point].
For `O=C(CN1C2CCCC1CC(NC(=O)c1ccccc1)C2)Nc1ccccc1C(F)(F)F` (stereo not drawn), the cell number change was -25% and the AC50 [2] was 35.5 µM [rising, single point].
For `Cc1ccnn1CC(=O)N/N=C/c1ccc([N+](=O)[O-])s1`, the cell number change was -34.4%, the AC50 [1] was 29.1 µM [falling, single point] and the AC50 [2] was 18.4 µM [falling, partial curve].
In the case of `COc1cc(/C=N/n2nnnc2N)ccc1OCc1c(C)no[n+]1[O-]`, the AC50 [1] is reported as 1.3 µM [falling, single point] and the AC50 [2] is reported as 7.31 µM [rising, partial curve, poor fit].
In the case of `CCCn1cnc2c(c1=O)c1nc3ccccc3nc1n2CCc1ccccc1`, the cell number change is reported as 87.3% and the AC50 [1] is reported as 0.326 µM [rising, full curve].
In the case of `Cc1ccc(NC(=O)CCCn2c(=O)[nH]c3ccsc3c2=O)cc1`, the cell number change is reported as 10.7% and the AC50 [2] is reported as 0.58 µM [rising, single point].
In the case of `CC(CN1C(C)CCCC1C)OC(=O)c1ccccc1Cl` (stereo not drawn), the cell number change is reported as 12.9%, the AC50 [1] is reported as 0.411 µM [rising, full curve] and the AC50 [2] is reported as 0.58 µM [rising, full curve].
With `COc1cccc(CC(NC(C)=O)C(=O)NC2CCN(S(=O)(=O)c3cccc4ccccc34)CC2)c1` (stereo not drawn) the cell number change was 4.97%.
With `COc1ccc(C(O)Cn2ccsc2=NC(C)=O)cc1` (stereo not drawn) the AC50 [2] was 29.1 µM [rising, single point].
For `CCOC(=O)C1=C(C)NC(C)=C(C(=O)OCC)C1c1cc2ccc(C)cc2[nH]c1=O`, the cell number change was -31.1% and the AC50 [1] was 23.1 µM [falling, single point].
With `CC(C)c1nc2sc(C(=O)O)c(N)c2c2c1CCCC2` the cell number change was -0.341% and the AC50 [2] was 0.461 µM [falling, single point].
Work on `CCOc1cc(S(=O)(=O)N2CCC(c3nc4ccccc4s3)CC2)c(OCC)cc1S(=O)(=O)N1CCCCC1` yielded a cell number change of 2.41%.
With `Cc1ccc(S(=O)(=O)Nc2cccc(C(=O)N3CCC(C(N)=O)CC3)c2)cc1` the cell number change was 9.93% and the AC50 [2] was 0.58 µM [rising, full curve, poor fit].
Work on `CCOc1cc2[nH]c(=S)n(C3CC3)c(=O)c2cc1OCC` yielded a cell number change of -7.09%.
In the case of `Cc1ccc(C(=O)NNC(=O)c2ccncc2)cc1S(=O)(=O)N1CCCCC1`, the cell number change is reported as 29.2% and the AC50 [2] is reported as 6.51 µM [rising, single point].
With `O=C(Cc1ccc(F)cc1)NCc1cccnc1` the cell number change was -8.79%.
In the case of `COc1ccc(NC(=O)COC(=O)c2ccc(S(=O)(=O)N(C)c3ccccc3OC)cc2)cc1OC`, the cell number change is reported as 60.9% and the AC50 [2] is reported as 5.17 µM [falling, single point].
For `Cc1cccc(NC(=O)CN2CCc3cc4c(cc3C2)OCCCO4)c1`, the cell number change was -5.9% and the AC50 [1] was 5.17 µM [rising, single point].
In the case of `CC(C)(C)Nc1nc(Nc2ccc([N+](=O)[O-])cc2)nc(NC(C)(C)C)n1`, the cell number change is reported as 10.3% and the AC50 [2] is reported as 29.1 µM [rising, single point].
With `COc1cc(OC)c(OC)cc1/C=C1\CCC(C2CCCC2)C1=O` (stereo not drawn) the cell number change was 56.1%, the AC50 [1] was 14.6 µM [rising, partial curve, poor fit] and the AC50 [2] was 0.116 µM [rising, full curve, poor fit].
With `O=C(CO/N=C1\CCCc2nonc21)Nc1ccccc1Cl` the cell number change was 9.67% and the AC50 [2] was 4.61 µM [rising, full curve, poor fit].
With `Nc1nccc(-c2cccs2)n1` the cell number change was -64.8% and the AC50 [1] was 6.51 µM [rising, partial curve, poor fit].
In the case of `C=CCN1C(=O)c2ccc(C(=O)NCC(c3ccccc3)N(C)C)cc2C1=O` (stereo not drawn), the cell number change is reported as -16.9% and the AC50 [2] is reported as 18.4 µM [falling, single point].
